According to the supplement of paper PMC12067093, “Discovery and optimisation of a covalent ligand for TRIM25 and its application to targeted protein ubiquitination” (Chemical Science, 2025):
This is one part of the list.

Protein sequences, listed by entry. Tags and fused reporters are not part of them. Lines headed by an entry give the natural chain unless they say otherwise; changes in a name come on top.
UniProt O95479: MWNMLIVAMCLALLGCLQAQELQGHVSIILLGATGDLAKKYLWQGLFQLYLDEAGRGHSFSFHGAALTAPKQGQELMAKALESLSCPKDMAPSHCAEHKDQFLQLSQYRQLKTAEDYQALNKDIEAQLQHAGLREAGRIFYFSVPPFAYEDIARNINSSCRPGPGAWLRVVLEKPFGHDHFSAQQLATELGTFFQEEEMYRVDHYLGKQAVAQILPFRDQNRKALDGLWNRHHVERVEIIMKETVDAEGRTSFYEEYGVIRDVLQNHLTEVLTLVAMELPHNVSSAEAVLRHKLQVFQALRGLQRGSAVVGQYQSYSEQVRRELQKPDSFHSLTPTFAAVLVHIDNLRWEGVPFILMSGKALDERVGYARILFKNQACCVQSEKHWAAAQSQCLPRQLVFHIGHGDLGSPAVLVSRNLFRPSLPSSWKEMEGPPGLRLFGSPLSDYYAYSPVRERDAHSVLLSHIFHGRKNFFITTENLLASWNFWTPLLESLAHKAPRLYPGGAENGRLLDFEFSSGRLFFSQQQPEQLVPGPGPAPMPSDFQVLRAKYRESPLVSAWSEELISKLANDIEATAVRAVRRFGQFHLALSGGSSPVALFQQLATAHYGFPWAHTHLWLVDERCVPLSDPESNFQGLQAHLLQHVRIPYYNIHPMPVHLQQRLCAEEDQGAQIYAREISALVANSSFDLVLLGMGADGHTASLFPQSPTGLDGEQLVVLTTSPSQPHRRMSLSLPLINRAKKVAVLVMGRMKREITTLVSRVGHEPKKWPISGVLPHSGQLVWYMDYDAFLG
UniProt Q14687: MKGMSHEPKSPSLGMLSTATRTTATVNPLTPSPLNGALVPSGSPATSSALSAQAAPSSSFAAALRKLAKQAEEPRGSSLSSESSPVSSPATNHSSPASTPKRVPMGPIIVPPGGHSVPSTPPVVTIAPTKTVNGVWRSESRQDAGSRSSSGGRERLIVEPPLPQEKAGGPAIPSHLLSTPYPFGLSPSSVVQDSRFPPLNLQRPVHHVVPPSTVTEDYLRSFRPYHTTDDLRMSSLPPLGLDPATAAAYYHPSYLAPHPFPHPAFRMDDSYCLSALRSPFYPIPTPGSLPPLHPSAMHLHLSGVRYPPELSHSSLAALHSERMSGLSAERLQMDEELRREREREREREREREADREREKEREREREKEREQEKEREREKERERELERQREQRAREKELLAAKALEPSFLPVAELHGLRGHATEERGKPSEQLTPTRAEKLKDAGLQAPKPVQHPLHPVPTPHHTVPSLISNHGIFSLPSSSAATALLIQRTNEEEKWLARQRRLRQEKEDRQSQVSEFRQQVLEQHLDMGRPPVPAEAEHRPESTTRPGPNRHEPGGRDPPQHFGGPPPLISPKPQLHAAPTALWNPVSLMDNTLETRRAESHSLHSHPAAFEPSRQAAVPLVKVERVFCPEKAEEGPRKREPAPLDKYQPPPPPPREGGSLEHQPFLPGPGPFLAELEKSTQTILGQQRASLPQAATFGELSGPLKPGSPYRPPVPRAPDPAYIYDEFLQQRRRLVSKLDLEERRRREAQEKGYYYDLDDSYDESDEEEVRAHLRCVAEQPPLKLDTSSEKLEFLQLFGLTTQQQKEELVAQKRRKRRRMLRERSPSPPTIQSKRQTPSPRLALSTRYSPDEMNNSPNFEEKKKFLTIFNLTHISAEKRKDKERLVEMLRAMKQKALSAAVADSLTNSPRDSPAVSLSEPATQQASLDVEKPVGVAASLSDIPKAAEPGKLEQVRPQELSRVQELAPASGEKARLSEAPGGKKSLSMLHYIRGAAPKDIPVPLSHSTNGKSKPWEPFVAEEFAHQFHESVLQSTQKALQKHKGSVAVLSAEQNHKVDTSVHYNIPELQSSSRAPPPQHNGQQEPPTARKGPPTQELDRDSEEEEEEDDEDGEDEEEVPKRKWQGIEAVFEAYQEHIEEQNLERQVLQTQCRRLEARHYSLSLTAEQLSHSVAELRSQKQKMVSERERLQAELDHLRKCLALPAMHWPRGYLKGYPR
UniProt P25098: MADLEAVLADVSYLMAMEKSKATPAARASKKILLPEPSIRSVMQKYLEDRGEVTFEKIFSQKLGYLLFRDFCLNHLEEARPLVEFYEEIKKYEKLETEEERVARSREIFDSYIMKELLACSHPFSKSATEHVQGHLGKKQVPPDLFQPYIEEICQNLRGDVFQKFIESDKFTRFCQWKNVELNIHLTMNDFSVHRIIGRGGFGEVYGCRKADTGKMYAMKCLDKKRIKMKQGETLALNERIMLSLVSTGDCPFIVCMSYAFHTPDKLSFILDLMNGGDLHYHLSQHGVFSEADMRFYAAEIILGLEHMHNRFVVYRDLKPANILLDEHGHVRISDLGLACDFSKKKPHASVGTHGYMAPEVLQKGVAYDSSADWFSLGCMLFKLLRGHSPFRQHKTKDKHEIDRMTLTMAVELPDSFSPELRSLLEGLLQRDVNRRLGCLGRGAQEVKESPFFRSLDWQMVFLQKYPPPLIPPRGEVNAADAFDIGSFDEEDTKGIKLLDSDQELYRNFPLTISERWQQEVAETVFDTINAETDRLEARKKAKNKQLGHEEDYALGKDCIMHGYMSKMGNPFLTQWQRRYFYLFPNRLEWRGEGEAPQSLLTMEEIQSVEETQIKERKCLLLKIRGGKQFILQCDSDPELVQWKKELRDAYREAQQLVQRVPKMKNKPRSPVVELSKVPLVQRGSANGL
UniProt Q8TD30: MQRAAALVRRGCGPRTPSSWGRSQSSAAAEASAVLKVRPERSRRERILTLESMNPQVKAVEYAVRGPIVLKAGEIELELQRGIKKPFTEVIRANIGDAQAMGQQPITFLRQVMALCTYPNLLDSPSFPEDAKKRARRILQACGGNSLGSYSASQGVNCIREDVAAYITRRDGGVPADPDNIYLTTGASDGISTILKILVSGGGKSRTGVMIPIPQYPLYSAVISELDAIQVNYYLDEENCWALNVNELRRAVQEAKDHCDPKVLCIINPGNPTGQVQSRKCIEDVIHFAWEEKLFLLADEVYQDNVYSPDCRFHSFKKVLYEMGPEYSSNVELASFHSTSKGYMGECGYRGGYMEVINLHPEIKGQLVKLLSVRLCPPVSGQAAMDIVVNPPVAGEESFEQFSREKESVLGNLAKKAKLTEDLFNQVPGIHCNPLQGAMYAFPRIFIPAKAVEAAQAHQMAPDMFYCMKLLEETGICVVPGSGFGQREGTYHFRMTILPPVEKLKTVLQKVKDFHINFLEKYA
UniProt P21266: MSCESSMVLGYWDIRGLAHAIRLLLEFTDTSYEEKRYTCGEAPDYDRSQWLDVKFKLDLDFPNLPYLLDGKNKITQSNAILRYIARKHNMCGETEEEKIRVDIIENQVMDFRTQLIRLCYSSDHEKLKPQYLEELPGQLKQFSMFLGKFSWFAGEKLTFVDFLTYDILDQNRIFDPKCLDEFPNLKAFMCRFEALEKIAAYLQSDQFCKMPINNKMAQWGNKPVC
UniProt Q96CP6, whole entry, looked up: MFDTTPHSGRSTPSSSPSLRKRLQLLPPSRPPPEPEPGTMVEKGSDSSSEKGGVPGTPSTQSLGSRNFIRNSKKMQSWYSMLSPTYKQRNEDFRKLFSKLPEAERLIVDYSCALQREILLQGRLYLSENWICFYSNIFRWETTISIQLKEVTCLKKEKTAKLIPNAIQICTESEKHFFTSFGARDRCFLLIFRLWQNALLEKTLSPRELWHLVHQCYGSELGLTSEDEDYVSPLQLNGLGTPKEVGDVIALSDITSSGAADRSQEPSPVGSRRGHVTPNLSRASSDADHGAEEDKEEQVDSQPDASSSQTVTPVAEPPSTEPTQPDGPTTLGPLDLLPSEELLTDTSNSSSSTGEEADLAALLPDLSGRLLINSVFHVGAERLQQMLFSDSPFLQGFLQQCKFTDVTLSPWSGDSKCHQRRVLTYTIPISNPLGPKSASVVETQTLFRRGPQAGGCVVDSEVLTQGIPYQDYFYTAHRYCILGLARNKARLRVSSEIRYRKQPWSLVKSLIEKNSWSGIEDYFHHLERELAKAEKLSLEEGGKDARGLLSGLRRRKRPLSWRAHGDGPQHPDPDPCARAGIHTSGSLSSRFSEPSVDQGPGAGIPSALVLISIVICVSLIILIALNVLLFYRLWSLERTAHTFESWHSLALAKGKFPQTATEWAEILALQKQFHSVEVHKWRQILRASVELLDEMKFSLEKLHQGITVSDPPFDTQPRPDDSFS
UniProt Q9UBQ7: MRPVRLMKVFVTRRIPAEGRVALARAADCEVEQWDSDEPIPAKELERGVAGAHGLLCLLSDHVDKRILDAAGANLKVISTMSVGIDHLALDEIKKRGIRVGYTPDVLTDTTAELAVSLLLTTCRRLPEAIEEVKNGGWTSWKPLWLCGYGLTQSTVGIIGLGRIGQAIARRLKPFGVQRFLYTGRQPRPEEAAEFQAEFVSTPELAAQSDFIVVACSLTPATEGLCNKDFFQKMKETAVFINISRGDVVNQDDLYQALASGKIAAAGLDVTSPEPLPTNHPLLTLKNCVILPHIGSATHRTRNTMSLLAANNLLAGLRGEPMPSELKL
UniProt Q92664: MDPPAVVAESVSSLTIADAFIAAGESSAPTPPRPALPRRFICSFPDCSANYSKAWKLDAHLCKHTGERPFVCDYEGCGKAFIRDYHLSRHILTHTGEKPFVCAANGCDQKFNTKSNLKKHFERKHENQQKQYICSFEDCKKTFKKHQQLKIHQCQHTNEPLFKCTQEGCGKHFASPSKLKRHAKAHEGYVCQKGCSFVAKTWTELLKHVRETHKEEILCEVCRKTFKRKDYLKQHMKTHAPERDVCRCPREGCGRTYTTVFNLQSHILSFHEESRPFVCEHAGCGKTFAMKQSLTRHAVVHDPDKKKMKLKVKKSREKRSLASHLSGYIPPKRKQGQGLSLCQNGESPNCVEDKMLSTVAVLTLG
UniProt P46976: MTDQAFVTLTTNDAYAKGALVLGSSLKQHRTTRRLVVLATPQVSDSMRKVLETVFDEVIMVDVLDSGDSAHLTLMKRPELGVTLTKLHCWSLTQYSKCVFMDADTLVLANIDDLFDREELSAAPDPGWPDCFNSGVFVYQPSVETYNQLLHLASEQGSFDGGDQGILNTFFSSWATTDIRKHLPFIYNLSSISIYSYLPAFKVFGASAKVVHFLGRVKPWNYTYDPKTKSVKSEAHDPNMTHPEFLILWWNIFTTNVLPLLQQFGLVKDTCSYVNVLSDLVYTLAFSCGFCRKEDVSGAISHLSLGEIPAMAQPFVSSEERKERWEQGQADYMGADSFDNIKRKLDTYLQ
UniProt Q92917: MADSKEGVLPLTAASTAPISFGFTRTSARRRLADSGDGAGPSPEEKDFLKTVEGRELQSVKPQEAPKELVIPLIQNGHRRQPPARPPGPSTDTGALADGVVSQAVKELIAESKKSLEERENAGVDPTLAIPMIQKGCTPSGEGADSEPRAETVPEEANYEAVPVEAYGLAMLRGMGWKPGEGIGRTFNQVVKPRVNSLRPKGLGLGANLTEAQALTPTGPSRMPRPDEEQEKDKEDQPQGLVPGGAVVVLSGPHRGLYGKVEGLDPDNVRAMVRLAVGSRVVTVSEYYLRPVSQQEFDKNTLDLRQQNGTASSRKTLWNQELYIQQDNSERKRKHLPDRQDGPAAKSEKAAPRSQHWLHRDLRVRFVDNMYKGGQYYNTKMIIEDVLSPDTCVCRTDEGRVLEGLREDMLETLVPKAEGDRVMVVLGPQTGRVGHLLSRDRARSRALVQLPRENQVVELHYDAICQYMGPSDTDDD
UniProt Q9BQ67, whole entry, looked up: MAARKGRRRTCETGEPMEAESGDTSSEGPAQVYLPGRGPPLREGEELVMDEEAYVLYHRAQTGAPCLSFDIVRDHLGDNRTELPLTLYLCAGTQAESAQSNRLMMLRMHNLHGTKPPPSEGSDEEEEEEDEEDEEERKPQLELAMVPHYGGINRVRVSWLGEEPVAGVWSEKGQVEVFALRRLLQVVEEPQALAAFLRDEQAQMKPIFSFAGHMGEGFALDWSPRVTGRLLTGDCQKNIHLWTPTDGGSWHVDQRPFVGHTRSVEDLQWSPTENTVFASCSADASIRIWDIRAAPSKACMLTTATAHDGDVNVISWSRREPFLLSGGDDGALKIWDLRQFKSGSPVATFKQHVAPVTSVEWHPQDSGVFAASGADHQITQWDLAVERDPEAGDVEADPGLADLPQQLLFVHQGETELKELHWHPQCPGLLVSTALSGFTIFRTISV
UniProt Q9HCN4, whole entry: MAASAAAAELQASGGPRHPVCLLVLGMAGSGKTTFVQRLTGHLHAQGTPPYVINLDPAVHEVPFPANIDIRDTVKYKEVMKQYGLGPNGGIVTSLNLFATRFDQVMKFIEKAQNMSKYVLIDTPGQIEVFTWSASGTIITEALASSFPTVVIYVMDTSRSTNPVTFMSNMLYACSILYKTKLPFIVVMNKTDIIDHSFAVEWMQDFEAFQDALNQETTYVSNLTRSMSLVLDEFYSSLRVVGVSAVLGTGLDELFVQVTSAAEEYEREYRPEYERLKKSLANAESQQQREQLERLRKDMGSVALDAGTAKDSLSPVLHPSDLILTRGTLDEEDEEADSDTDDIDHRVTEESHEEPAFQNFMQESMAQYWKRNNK

Each target was assayed with CC1Cc2ccccc2N1C(=O)C1CCCN(C1)C(=O)CCl (mixture of isomers) [TRIM25 ligand 11 (diastereomer mixture)] (assay: probe-labelled cysteine peptide fold change vs DMSO (competition) (log2 fold change); higher = less target engagement (more negative = stronger competition)). Settings: 10 µM; THP-1; incubation time: 4 h.
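Note: competitive chemoproteomic profiling in live THP-1 cells with an iodoacetamide desthiobiotin (IA-DTB) probe, comparing probe-labelled peptide intensities in compound-treated cells against DMSO-treated controls.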

| Target | probe-labelled cysteine peptide fold change |
| --- | --- |
| GSN_P06396_331_SEDCFILDHGKDGK (UniProt P06396) | 0.104 |
| H6PD_O95479_95_DMAPSHCAEHK (UniProt O95479) | -0.085 |
| GTF3C5_Q9Y5Q8_432_NDGAENSCTER (UniProt Q9Y5Q8) | 0.333 |
| GSE1_Q14687_1199_CLALPAMHWPR (UniProt Q14687) | -0.0722 |
| H6PD_O95479_663_LCAEEDQGAQIYAR (UniProt O95479) | 0.0447 |
| GTF2I_P78347_215_SILSPGGSCGPIK (UniProt P78347) | -0.0394 |
| GRK2_P25098_120_ELLACSHPFSK (UniProt P25098) | -0.00362 |
| GRN_P28799_171_VHCCPHGAFCDLVHTR (UniProt P28799) | -0.00859 |
| GTPBP1_O00178_360_MCPIFQISNVTGENLDLLK (UniProt O00178) | 0.138 |
| HAGH_Q16775_219_VYCGHEYTINNLK (UniProt Q16775) | 0.0833 |
| HADHA_P40939_349_ALMGLYHGQVLCKK (UniProt P40939) | -0.452 |
| GTPBP6_O43824_99_VCLVHPDVK (UniProt O43824) | -0.0184 |
| GTF3C3_Q9Y5Q9_239_QAIFCYTK (UniProt Q9Y5Q9) | -0.0318 |
| GPT2_Q8TD30_432_LTEDLFNQVPGIHCNPLQGAMYAFPR (UniProt Q8TD30) | -0.0559 |
| GSS_P48637_422_VVQCISELGIFGVYVR (UniProt P48637) | -0.15 |
| GTF3C1_Q12789_1188_VGSELCAGWEEQFEVDREPSLDR (UniProt Q12789) | -0.00354 |
| GSTM3_P21266_91_HNMCGETEEEK (UniProt P21266) | 0.046 |
| H2AFY2_Q9P0M6_286_CEEQLEETIK (UniProt Q9P0M6) | 0.236 |
| GPT2_Q8TD30_281_CIEDVIHFAWEEK (UniProt Q8TD30) | 0.213 |

| Target | probe-labelled cysteine peptide fold change |
| --- | --- |
| GRAMD1A_Q96CP6_576_AHGDGPQHPDPDPCAR (UniProt Q96CP6) | 0.0876 |
| HAGHL_Q6PII5_170_VFCGHEHTLSNLEFAQK (UniProt Q6PII5) | 0.0132 |
| HAUS3_Q68CZ6_271_LQLAYICAQHQLIHLK (UniProt Q68CZ6) | -0.131 |
| GSDMD_P57764_191_FSLPGATCLQGEGQGHLSQKK (UniProt P57764) | -0.0128 |
| GRHPR_Q9UBQ7_57_GVAGAHGLLCLLSDHVDKR (UniProt Q9UBQ7) | -0.0063 |
| GSPT1_P15170_453_FVKQDQVCIAR (UniProt P15170) | -0.525 |
| H2AFY_O75367_276_FVIHCNSPVWGADKCEELLEK (UniProt O75367) | -0.321 |
| GSE1_Q14687_1151_QVLQTQCR (UniProt Q14687) | -0.12 |
| GTF3A_Q92664_62_LDAHLCK (UniProt Q92664) | -0.0638 |
| GYG1_P46976_89_LHCWSLTQYSK (UniProt P46976) | 0.145 |
| GSK3B_P49841_76_LCDSGELVAIKK (UniProt P49841) | -0.205 |
| GPKOW_Q92917_137_GCTPSGEGADSEPR (UniProt Q92917) | -0.0976 |
| GRWD1_Q9BQ67_90_DHLGDNRTELPLTLYLCAGTQAESAQSNR (UniProt Q9BQ67) | -0.184 |
| GPKOW_Q92917_394_MIIEDVLSPDTCVCR (UniProt Q92917) | 0.0151 |
| GPN1_Q9HCN4_21_HPVCLLVLGMAGSGK (UniProt Q9HCN4) | -0.167 |
| GRHPR_Q9UBQ7_288_NCVILPHIGSATHR (UniProt Q9UBQ7) | 0.0388 |
| GRK2_P25098_559_DCIMHGYMSK (UniProt P25098) | -0.133 |
| GTSF1_Q8WW33_71_AEISHHISSCDDR (UniProt Q8WW33) | 0.104 |

Two entries picked at random from those above:

| Target | probe-labelled cysteine peptide fold change |
| --- | --- |
| GRHPR_Q9UBQ7_288_NCVILPHIGSATHR (UniProt Q9UBQ7) | 0.0388 |
| GRAMD1A_Q96CP6_576_AHGDGPQHPDPDPCAR (UniProt Q96CP6) | 0.0876 |
